# PubChem BioAssay AID1259254 | NCATS | 2017
# Screen: 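Finding genes that stop cells copying their DNA twice in one cycle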 (primary screen)
# Cells: human HCT116 colorectal cancer cells
# Knock-down reagent: single siRNA against human genes
# Duration: 3 days
# Detection: 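Nuclei stained with Hoechst and imaged; cell-cycle phase assigned by DNA content; G2 share scaled per plate, non-targeting siRNA 0%, GMNN siRNA 100%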
# Scale: G2 robust z-score and G2 cells, % of GMNN control: higher = more G2 cells, more excess DNA replication
# Rule for the call: 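An siRNA counts as active if its G2 robust z-score lies at least 5 MADs above the screen median; here such calls match roughly 38% of GMNN control or more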
# The deposit covers about 59,000 reagents; this is an unselected part. About 1,550 of them (2.6%) were called active. 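G2 share is only a proxy for re-replication; each gene was hit by three separate siRNAs, and active genes were retested.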 Entries without a mark were called inactive. Reagents against one gene are numbered here. Further read-outs or replicates are left out here. No sequences are given here. Not stated in the record: the amount of reagent.
target gene,reagent no.,G2 robust z-score,"G2 cells, % of GMNN control"
DYRK3,1,-1.21,-5.55
DYRK3,2,-1.36,-6.61
DYRK3,3,-0.596,-1.22
CCNYL2,1,2.7,22
CCNYL2,2,1.05,10.3
CCNYL2,3,-0.0369,2.71
SHISA9,1,0.135,3.92
SHISA9,2,-0.118,2.14
SHISA9,3,1.07,10.5
SHISA9,4,-0.471,-0.349
SHISA9,5,2.95,23.7
SHISA9,6,0.168,4.15
CREB1,1,0.599,7.19
CREB1,2,-0.747,-2.29
CREB1,3,-0.439,-0.124
PARP1,1,2.57,21.1
PARP1,2,1.75,15.3
PARP1,3,-0.166,1.8
UCP3,1,0.351,5.44
UCP3,2,5.62 (active),42.5
UCP3,3,-0.715,-2.06
SLC17A3,1,-1.7,-8.99
SLC17A3,2,1.33,12.4
SLC17A3,3,0.361,5.51
GALNT7,1,-0.142,1.97
GALNT7,2,-0.7,-1.96
GALNT7,3,-0.403,0.13
BRDT,1,-1.08,-4.66
BRDT,2,-1.12,-4.94
BRDT,3,-0.349,0.515
DNAJC3,1,0.212,4.46
DNAJC3,2,1.02,10.1
DNAJC3,3,1.46,13.2
ITGB2,1,0.389,5.7
ITGB2,2,1.25,11.7
ITGB2,3,2.93,23.6
PDCD6P1,1,2.87,23.2
PDCD6P1,2,3.36,26.6
PDCD6P1,3,1.91,16.4
TEAD1,1,3.91,30.5
TEAD1,2,0.134,3.91
TEAD1,3,-0.221,1.41

Continued; the last 2 above are carried over.
target gene,reagent no.,G2 robust z-score,"G2 cells, % of GMNN control"
TEAD1,2,0.134,3.91
TEAD1,3,-0.221,1.41
NKX2-6,1,0.798,8.58
NKX2-6,2,0.789,8.52
NKX2-6,3,-1.51,-7.67
DCUN1D1,1,0.619,7.32
DCUN1D1,2,-0.535,-0.794
DCUN1D1,3,-0.166,1.8
CSRNP2,1,0.0193,3.1
CSRNP2,2,-0.19,1.63
CSRNP2,3,-0.53,-0.761
PWP2,1,0.843,8.9
PWP2,2,-0.62,-1.39
PWP2,3,1.71,15
QSER1,1,3,24.1
QSER1,2,1.01,10.1
QSER1,3,-0.874,-3.18
MKNK1,1,0.614,7.28
MKNK1,2,-0.652,-1.62
MKNK1,3,-0.347,0.524
SPANXA1,1,-0.356,0.462
SPANXA1,2,2.56,20.9
SPANXA1,3,-0.661,-1.68
CDKN2A,1,1.34,12.4
CDKN2A,2,-0.152,1.9
CDKN2A,3,1.71,15
MARCHF9,1,-1.06,-4.5
MARCHF9,2,-0.294,0.901
MARCHF9,3,-0.126,2.08
